According to PMC12850329:

Legend:
[1] = target: Hypoxia-induced gene domain protein-1a (HIGD1A) (human (endogenous in HK-2)); assay: co-IP; immunoprecipitation of HIGD1A or control IgG from HK-2 cells treated with PBS or AA (100 µM) for 24 h
HIGD1A (M72V) mutant = assay: co-IP; wild-type HIGD1A or HIGD1A-M72V after AA treatment; TFAM levels in the immunoprecipitates

B1: mitochondrial transcription factor A (TFAM) (protein, UniProt Q00059 43-246)
chain: SSVLASCPKKPVSSYLRFSKEQLPIFKAQNPDAKTTELIRRIAQRWRELPDSKKKIYQDAYRAEWQVYKEEISRFKEQLTPSQIMSLEKEIMDKHLKRKAMTKKKELTLLGKPKRPRSAYNVYVAERFQEAKGDSPQEKLKTVKENWKNLSDSEKELYIQHAKEDETRYHNEMKSWEEQMIEVGRKDLLRRTIKKQRKYGAEEC
binding [1]: binds | binding (HIGD1A (M72V) mutant): binds

No constants are given. Whether binding was seen depends on the method and setting. In cells and extracts the contact can be indirect. Binding can be weak; no strength is given.
